These results are taken from PMC10816710.

Sequences of proteins named here, by UniProt entry; tags and fusion partners are left off.
UniProt P27323: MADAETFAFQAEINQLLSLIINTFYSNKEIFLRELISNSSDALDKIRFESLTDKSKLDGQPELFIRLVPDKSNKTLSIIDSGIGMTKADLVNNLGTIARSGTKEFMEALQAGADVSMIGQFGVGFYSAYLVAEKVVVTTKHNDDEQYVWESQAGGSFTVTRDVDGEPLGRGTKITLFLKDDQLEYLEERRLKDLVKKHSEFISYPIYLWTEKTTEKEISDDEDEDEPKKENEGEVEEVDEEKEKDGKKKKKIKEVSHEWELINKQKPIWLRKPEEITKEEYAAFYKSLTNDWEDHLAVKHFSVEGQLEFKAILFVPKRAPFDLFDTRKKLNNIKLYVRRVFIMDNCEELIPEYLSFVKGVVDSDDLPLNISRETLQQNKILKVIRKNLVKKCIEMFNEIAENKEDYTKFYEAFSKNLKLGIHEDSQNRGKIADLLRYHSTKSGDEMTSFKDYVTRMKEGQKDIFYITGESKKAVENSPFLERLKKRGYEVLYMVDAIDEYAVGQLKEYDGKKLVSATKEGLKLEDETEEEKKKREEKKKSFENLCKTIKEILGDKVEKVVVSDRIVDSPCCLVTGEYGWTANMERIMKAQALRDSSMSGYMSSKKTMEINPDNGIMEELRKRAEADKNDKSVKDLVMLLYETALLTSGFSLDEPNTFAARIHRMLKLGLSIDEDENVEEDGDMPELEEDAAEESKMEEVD
UniProt P55737: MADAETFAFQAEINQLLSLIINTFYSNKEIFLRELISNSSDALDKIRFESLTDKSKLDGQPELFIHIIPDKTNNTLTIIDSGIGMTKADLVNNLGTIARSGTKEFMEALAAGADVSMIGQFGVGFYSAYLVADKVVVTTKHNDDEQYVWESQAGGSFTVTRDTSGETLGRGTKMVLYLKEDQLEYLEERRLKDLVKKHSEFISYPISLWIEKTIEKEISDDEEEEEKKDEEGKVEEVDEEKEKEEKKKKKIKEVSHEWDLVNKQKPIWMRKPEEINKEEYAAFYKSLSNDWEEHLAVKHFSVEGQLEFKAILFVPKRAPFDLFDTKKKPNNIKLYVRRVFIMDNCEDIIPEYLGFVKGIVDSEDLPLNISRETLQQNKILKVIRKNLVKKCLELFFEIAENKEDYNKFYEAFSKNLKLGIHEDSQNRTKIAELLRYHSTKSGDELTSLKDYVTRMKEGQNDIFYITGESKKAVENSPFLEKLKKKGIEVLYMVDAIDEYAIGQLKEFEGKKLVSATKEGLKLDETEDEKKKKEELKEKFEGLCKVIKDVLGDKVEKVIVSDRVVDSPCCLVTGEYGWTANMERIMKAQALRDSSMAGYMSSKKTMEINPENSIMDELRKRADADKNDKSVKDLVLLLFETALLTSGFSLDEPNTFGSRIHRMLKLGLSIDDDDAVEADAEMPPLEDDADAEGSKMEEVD

These are yes or no findings as the source states them, for the method shown. Binding seen in cells or lysates may run through a third protein. Some results given as binding are weak or reduced against the parent protein; the word gives no strength.

The target of this experiment is T1, APRF1–YFPn (Arabidopsis thaliana) (UniProt Q9LYK6).
T1 sequence: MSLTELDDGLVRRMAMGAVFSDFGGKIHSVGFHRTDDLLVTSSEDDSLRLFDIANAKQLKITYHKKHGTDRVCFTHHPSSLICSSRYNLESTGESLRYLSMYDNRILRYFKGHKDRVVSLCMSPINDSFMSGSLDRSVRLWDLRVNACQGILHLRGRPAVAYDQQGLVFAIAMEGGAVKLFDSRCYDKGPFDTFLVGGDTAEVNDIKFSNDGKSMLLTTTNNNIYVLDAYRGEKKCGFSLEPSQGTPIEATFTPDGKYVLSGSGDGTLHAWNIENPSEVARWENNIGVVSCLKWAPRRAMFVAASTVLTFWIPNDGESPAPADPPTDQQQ
Nature of the experiment: split reporter; BiFC with the pSPYNE/pSPYCE vectors in N. benthamiana leaf epidermal cells, observed 48–72 h after Agrobacterium infiltration; empty YFPc or YFPn vectors as negative controls.

Consider “HSP90.1–YFPc (from UniProt P27323 1-700)”, for which the binding entry is on record as “binds”.

Turning to “HSP90.2–YFPc (from UniProt P55737 1-699)”, the binding result is reported as “binds”.
